## Screening data, single-dose tests

Data taken from ChEMBL document CHEMBL3988442, “University of Dundee, Small-Polar-MMV Screening Library” (2021).

Mtb glucose medium: 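Whole-cell growth test on Mycobacterium tuberculosis, read after 3 days in glucose-containing 7H9 medium; the read-out is not stated. Concentration: 50 µM. Direction is inferred from retests: higher values go with more growth inhibition. About 69,000 compounds were tested under these conditions; 1.1% (about 760) showed 50% or more at least once.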
Mtb cholesterol medium: 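Growth of Mycobacterium tuberculosis over 4 days (cholesterol / DPPC medium with tyloxapol); the read-out is not stated. Concentration: 50 µM. Higher reads as more growth inhibition (inferred: compounds with an IC50 in retests scored well above the rest). Size under these conditions: about 69,000 compounds, about 370 of them at 50% or above in at least one test.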

Each number is a percent effect as filed. How 0% and 100% were set is not recorded. Most values in the screen are low, and negative values occur. This is an unselected part of the compounds tested. Two or more numbers in one place are separate tests of the same structure; such repeats can differ widely.

- Cc1[nH]c(=O)sc1S(=O)(=O)N1CCCC1C(=O)NC1CC1 (stereo not shown) | Mtb glucose medium: 26.12% & -1.131%; Mtb cholesterol medium: -5.18%
- [H][C@]12CCN[C@@]1([H])CN(C(=O)CC1CC1)C2 | Mtb glucose medium: 18.91%; Mtb cholesterol medium: 12.54%
- COc1ccnc(N2CCN(CC(=O)N3CCOCC3)CC2)n1 | Mtb glucose medium: -5.193%; Mtb cholesterol medium: -17.16%
- CCOCC1CN(C(=O)Cc2ccccn2)Cc2cn(C)nc21 (stereo not shown) | Mtb glucose medium: 6.833%; Mtb cholesterol medium: -2.117%
- Cc1ccc(C(=O)NC2CCN(C(=O)Nc3ccccn3)CC2)o1 | Mtb glucose medium: -28.21%; Mtb cholesterol medium: -35.19%
- Cc1ccc(C(C)NC(=O)N2CCNC(=O)CC2)cc1F (stereo not shown) | Mtb glucose medium: 4.98%; Mtb cholesterol medium: -14.54%
- O=C(NCCCn1cncn1)c1ccc(-c2ccccc2)[nH]c1=O | Mtb glucose medium: 25.3%; Mtb cholesterol medium: -5.561%
- COc1ccc(-c2noc(CN3CCN(c4cnccn4)CC3)n2)cc1 | Mtb glucose medium: 36.83%; Mtb cholesterol medium: 50.39%
- O=C(NCCCn1cccn1)C1(c2cccc(Cl)c2)CC1 | Mtb glucose medium: -4.788%; Mtb cholesterol medium: 1.465%
- COCCN1CC[C@]2(CN(Cc3ccccn3)C[C@H]2C)C1=O.O=C(O)C(F)(F)F.O=C(O)C(F)(F)F | Mtb glucose medium: -3.345% & -5.79%; Mtb cholesterol medium: 2.845%
- Cc1nc(CN2CC3(CCN(c4nccs4)C3)CC2=O)cs1 (stereo not shown) | Mtb glucose medium: 3.782%; Mtb cholesterol medium: -31.38%
- CCN(Cc1nc2c(cnn2C)c(=O)[nH]1)c1ccccc1C | Mtb glucose medium: 2.339% & 15.39%; Mtb cholesterol medium: -6.46%
- Cc1cnn(CCNCC(O)COc2cccc(C(F)(F)F)c2)c1 (stereo not shown) | Mtb glucose medium: 31.36%; Mtb cholesterol medium: 15.99%
- CCS(=O)(=O)c1ccc(N2CCC(N)CC2)cc1 | Mtb glucose medium: -10.2%; Mtb cholesterol medium: 19.59%
- CC(C)[C@@H]1CN(C(=O)CCn2ccccc2=O)C[C@H]1NS(C)(=O)=O | Mtb glucose medium: -4.222%; Mtb cholesterol medium: 2.08%
- O=C(c1cc[nH]n1)N1CCc2ncnc(NCc3ccccn3)c2CC1 | Mtb glucose medium: 13.48%; Mtb cholesterol medium: 4.37%
- Cc1cc(-c2nc(-c3c(C)ncc4c3CCNC4)no2)nc(C)n1 | Mtb glucose medium: 5.283%; Mtb cholesterol medium: 19.03%
- CCC[C@H]1CN(S(C)(=O)=O)C[C@@H]1NC(=O)CCOCC | Mtb glucose medium: -29.67%; Mtb cholesterol medium: 5.424%
- CC(=O)N(C)Cc1ccccc1NCc1c(C)noc1C | Mtb glucose medium: -15.27%; Mtb cholesterol medium: -9.293%
- [H][C@@]12CN(Cc3ccccn3)C(=O)N1CCN(C1CCOCC1)C2 | Mtb glucose medium: 8.771% & 1.43%; Mtb cholesterol medium: 6.244%
- CC(=O)N1CCCN(C(C(=O)O)c2cccc(C)c2C)CC1 (stereo not shown) | Mtb glucose medium: 17.9%; Mtb cholesterol medium: 2.131%
- Cc1[nH]ncc1C(=O)N1CCCN(Cc2nccn2C(C)C)CC1 | Mtb glucose medium: -28.46%; Mtb cholesterol medium: -10.4%
- O=C1CC2(CCN(Cc3ncc[nH]3)CC2)CN1Cc1ccc(Cl)cc1 | Mtb glucose medium: 26.93%; Mtb cholesterol medium: 10.3%
- CC(O)(CNC(=O)c1c(F)cccc1Cl)c1ccco1 (stereo not shown) | Mtb glucose medium: -10.42%; Mtb cholesterol medium: -24.64%
- [H][C@]12CC[C@]([H])(CN(Cc3coc(C)n3)C1)N(CC=C(C)C)C2 | Mtb glucose medium: -10.5%; Mtb cholesterol medium: -13.68%
- CC(C)N1CCOCC2(CCCN(C(=O)CCc3cccnc3)C2)C1.O=C(O)C(F)(F)F (stereo not shown) | Mtb glucose medium: 8.109%; Mtb cholesterol medium: -5.344%
- CC(C)n1cnc(-c2nc(C(=O)NC3CC3)c3ccccn23)c1 | Mtb glucose medium: 6.868%; Mtb cholesterol medium: -8.92%
- Cc1ccc(C(=O)N2CCc3ncccc3C2)cc1N1CCNC1=O | Mtb glucose medium: -15.55%; Mtb cholesterol medium: -5.818% & -13.39%
- O=C(O)C(F)(F)F.[H][C@@]12CCN(C(=O)c3ccoc3)C[C@]1(COc1ncccc1F)CCO2 | Mtb glucose medium: 25.68%; Mtb cholesterol medium: 6.961%
- CCC(CN1CCOCC1)n1cncc1-c1ccc2c(c1)CCN2CC.Cl (stereo not shown) | Mtb glucose medium: -3.609%; Mtb cholesterol medium: -18.48%
- CNC(=O)CS(=O)(=O)C1CCN(S(=O)(=O)c2ccccc2Br)CC1 | Mtb glucose medium: 3.7% & 1.552%; Mtb cholesterol medium: -13.67%
- Cc1ccc(-c2cc(C(=O)NC(C)C(=O)N3CCCCC3)on2)cc1 (stereo not shown) | Mtb glucose medium: 21.59% & 19.74%; Mtb cholesterol medium: 12.82%
- Cc1cccc(NC(=O)Nc2c[nH]c(=O)[nH]c2=O)c1C | Mtb glucose medium: 11.64%; Mtb cholesterol medium: -7.166%
- CC1COc2ccccc2N1C(=O)c1cscn1 (stereo not shown) | Mtb glucose medium: -8.212% & 9.34%; Mtb cholesterol medium: -21.84%
- CC(=O)N1CCN(C(=O)CCCc2nc(C(C)C)no2)CC1 | Mtb glucose medium: -43%; Mtb cholesterol medium: 9.414%
- CSc1ccc2cc(CN(C)CCCN(C)C)c(=O)[nH]c2c1 | Mtb glucose medium: -0.1358% & -16.92%; Mtb cholesterol medium: -19.94% & -6.284%
- COCC(=O)N1CCC(C(=O)N(C)CCCc2nccn2C)CC1 | Mtb glucose medium: -19.68%; Mtb cholesterol medium: 5.283%
- Cc1nc(CCNC(=O)NCC(c2ccco2)N(C)C)cs1 (stereo not shown) | Mtb glucose medium: -24.85%; Mtb cholesterol medium: -18.91%
- COc1cccc(-c2n[nH]c3c2CN(C(=O)C2=C(C)OCCO2)CC3)c1 | Mtb glucose medium: 21.92%; Mtb cholesterol medium: 18.36% & 0.6372%
- Cc1nc(CN2CCC(C(=O)O)(n3ccc(-c4ccco4)n3)CC2)co1 | Mtb glucose medium: 7.643%; Mtb cholesterol medium: -11.08%
- O=C(NCc1ccc(CO)cc1)C1CCOc2ccccc2C1 (stereo not shown) | Mtb glucose medium: -4.338%; Mtb cholesterol medium: 91.85%

Some entries from above, unchanged:

| compound | Mtb glucose medium | Mtb cholesterol medium |
|---|---|---|
| `CCC(CN1CCOCC1)n1cncc1-c1ccc2c(c1)CCN2CC.Cl` (stereo not shown) | -3.609 | -18.48 |
| `COc1ccnc(N2CCN(CC(=O)N3CCOCC3)CC2)n1` | -5.193 | -17.16 |
| `Cc1ccc(C(=O)N2CCc3ncccc3C2)cc1N1CCNC1=O` | -15.55 | -5.818 & -13.39 |
| `CC(=O)N1CCCN(C(C(=O)O)c2cccc(C)c2C)CC1` (stereo not shown) | 17.9 | 2.131 |
| `[H][C@]12CC[C@]([H])(CN(Cc3coc(C)n3)C1)N(CC=C(C)C)C2` | -10.5 | -13.68 |